Reference: the supplement of paper PMC12819154, “High-throughput peptide-centric local stability assay extends protein–ligand identification to membrane proteins, tissues and bacteria” (Nature Structural & Molecular Biology, 2025)
Some of the results follow. Most entries show no effect beyond the scatter of the controls.

Protein sequences, listed by entry. Tags and fused reporters are not part of them. Lines headed by an entry give the natural chain unless they say otherwise; changes in a name come on top.
UniProt Q8C0N2: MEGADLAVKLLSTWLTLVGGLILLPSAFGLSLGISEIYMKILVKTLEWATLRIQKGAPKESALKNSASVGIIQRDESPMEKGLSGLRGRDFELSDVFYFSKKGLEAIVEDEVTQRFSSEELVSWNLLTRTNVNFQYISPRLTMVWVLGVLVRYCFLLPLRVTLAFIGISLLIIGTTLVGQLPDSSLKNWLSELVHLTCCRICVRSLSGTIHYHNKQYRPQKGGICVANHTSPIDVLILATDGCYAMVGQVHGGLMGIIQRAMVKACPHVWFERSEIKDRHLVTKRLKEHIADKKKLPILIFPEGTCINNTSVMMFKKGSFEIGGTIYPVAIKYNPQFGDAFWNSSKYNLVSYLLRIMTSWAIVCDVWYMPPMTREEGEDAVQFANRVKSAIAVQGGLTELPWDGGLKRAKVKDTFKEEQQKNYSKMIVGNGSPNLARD
UniProt Q8C0E3: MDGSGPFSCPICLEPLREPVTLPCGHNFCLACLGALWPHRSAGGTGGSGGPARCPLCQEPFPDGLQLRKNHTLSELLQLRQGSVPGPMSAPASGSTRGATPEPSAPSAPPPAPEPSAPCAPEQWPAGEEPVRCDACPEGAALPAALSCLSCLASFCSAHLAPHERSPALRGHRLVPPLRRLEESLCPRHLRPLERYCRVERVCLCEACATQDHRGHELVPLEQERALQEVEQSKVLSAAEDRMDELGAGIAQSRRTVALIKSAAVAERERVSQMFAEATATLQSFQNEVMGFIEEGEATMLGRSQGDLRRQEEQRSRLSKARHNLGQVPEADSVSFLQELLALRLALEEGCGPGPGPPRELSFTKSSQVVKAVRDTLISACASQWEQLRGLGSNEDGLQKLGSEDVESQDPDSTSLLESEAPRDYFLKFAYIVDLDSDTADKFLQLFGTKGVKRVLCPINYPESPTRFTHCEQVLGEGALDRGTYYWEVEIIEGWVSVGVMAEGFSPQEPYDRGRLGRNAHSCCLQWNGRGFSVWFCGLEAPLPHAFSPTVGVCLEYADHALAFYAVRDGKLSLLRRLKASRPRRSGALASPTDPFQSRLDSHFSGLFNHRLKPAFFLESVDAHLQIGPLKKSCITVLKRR
UniProt Q8C166: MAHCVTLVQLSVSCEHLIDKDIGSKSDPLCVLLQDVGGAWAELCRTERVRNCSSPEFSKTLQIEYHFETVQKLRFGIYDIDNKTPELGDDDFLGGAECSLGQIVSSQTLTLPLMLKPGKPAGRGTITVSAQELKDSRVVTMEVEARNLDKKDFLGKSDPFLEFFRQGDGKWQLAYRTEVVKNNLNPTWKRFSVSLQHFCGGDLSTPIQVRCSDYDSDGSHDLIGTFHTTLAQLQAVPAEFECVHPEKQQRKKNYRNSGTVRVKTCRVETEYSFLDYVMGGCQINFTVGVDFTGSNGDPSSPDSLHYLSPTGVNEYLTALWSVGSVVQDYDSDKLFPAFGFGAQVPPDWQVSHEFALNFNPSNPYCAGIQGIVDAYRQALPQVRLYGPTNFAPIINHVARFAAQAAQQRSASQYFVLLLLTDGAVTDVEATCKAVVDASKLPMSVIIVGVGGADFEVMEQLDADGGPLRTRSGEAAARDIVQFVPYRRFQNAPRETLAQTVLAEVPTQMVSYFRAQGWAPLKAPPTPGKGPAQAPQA
UniProt Q8C729: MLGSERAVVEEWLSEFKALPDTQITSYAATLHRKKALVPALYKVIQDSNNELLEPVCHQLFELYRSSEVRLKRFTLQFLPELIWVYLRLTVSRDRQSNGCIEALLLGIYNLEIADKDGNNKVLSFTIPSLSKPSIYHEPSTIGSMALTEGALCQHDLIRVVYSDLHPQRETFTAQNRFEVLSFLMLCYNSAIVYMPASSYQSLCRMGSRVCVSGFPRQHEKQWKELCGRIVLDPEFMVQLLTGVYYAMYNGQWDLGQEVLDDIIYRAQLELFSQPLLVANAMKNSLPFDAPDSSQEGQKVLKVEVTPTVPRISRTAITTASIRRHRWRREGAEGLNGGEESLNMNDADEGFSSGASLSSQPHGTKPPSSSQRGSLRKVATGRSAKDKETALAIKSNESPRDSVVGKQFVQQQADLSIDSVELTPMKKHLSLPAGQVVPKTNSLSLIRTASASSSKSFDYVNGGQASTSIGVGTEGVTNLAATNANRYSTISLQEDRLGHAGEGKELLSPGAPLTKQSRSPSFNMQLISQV
UniProt Q8BZ47: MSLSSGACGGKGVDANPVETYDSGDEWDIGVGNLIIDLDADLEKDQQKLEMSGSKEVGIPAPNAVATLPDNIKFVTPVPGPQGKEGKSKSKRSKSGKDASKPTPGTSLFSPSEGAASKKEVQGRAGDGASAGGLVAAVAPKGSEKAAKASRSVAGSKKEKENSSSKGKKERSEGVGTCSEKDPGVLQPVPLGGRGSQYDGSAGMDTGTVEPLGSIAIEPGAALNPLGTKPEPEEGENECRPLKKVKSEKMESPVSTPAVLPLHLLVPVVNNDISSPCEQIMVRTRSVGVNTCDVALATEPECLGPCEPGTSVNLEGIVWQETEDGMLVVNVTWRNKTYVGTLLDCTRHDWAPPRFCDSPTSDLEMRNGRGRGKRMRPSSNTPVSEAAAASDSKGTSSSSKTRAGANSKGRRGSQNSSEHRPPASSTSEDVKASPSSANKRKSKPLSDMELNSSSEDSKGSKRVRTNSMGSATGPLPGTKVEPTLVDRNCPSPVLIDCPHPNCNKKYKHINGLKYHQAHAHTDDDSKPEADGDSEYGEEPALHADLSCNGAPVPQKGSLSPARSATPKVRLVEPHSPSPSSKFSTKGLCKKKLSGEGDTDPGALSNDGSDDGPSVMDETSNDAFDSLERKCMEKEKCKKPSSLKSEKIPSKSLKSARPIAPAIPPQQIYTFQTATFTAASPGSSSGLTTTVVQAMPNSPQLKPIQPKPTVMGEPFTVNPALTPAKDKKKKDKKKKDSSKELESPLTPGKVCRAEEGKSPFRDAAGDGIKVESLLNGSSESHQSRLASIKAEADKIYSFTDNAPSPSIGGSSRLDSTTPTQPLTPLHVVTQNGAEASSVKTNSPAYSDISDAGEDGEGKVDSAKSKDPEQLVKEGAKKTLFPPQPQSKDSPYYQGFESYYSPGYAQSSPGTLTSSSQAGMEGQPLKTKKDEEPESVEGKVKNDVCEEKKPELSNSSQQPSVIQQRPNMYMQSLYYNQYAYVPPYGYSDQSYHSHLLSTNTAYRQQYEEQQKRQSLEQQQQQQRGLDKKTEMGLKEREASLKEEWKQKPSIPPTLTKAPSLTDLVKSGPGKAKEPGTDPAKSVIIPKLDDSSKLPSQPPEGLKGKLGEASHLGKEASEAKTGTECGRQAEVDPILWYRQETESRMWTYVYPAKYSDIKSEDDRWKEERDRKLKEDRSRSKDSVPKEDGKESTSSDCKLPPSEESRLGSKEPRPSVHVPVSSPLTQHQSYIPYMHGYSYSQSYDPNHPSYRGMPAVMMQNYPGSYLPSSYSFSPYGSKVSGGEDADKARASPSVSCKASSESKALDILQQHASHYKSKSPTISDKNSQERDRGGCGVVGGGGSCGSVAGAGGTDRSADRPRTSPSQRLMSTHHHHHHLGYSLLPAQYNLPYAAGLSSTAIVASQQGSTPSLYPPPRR
UniProt Q8BWW4: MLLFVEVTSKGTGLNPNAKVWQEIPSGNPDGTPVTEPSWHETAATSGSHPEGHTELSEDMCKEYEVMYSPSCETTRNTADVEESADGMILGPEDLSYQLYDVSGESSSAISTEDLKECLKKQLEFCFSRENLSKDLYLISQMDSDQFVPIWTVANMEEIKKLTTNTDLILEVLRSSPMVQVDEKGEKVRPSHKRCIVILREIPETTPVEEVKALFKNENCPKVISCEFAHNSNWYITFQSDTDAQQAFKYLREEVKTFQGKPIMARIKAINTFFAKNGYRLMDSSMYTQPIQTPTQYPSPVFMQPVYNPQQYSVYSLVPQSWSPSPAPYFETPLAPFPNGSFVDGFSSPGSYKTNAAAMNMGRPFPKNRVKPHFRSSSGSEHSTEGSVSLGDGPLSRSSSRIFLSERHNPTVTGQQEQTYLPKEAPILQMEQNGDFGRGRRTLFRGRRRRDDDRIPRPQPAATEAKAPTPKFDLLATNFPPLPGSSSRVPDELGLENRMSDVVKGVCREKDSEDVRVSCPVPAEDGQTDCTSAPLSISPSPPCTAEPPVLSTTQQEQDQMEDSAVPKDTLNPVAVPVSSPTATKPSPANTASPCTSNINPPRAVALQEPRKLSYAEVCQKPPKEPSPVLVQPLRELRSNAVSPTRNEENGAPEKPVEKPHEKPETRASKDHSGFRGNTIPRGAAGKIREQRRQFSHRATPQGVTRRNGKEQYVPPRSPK
UniProt Q8C1Z8: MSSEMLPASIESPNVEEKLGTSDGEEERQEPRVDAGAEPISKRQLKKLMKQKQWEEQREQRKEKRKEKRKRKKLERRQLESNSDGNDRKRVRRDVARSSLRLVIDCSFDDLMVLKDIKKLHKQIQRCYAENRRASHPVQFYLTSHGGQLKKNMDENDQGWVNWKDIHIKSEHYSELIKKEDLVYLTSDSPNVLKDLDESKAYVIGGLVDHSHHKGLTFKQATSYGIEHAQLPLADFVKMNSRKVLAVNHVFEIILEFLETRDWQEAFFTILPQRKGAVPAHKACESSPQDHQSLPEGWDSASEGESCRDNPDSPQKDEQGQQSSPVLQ
UniProt Q8C863: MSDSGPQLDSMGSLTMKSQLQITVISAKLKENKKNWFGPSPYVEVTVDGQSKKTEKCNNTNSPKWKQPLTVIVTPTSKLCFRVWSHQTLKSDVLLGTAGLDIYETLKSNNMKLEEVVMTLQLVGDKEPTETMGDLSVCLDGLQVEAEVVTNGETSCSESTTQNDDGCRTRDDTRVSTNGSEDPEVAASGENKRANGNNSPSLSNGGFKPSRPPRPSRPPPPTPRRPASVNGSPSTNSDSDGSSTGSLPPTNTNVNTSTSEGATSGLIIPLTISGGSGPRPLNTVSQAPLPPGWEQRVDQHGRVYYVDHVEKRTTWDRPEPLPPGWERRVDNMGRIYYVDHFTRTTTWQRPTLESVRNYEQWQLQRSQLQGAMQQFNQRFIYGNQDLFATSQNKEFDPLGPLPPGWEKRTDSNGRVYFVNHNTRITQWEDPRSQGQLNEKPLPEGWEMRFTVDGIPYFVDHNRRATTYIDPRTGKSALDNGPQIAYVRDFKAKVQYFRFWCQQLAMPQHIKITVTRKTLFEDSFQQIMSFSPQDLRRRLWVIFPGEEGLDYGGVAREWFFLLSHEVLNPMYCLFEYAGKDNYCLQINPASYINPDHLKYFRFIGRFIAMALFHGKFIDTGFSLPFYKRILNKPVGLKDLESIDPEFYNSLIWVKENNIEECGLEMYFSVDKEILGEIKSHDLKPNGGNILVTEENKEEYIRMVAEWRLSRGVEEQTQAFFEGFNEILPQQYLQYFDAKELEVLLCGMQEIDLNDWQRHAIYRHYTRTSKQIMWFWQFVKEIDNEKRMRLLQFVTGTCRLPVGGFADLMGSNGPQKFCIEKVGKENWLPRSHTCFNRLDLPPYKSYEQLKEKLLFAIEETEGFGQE
UniProt Q8C3F2: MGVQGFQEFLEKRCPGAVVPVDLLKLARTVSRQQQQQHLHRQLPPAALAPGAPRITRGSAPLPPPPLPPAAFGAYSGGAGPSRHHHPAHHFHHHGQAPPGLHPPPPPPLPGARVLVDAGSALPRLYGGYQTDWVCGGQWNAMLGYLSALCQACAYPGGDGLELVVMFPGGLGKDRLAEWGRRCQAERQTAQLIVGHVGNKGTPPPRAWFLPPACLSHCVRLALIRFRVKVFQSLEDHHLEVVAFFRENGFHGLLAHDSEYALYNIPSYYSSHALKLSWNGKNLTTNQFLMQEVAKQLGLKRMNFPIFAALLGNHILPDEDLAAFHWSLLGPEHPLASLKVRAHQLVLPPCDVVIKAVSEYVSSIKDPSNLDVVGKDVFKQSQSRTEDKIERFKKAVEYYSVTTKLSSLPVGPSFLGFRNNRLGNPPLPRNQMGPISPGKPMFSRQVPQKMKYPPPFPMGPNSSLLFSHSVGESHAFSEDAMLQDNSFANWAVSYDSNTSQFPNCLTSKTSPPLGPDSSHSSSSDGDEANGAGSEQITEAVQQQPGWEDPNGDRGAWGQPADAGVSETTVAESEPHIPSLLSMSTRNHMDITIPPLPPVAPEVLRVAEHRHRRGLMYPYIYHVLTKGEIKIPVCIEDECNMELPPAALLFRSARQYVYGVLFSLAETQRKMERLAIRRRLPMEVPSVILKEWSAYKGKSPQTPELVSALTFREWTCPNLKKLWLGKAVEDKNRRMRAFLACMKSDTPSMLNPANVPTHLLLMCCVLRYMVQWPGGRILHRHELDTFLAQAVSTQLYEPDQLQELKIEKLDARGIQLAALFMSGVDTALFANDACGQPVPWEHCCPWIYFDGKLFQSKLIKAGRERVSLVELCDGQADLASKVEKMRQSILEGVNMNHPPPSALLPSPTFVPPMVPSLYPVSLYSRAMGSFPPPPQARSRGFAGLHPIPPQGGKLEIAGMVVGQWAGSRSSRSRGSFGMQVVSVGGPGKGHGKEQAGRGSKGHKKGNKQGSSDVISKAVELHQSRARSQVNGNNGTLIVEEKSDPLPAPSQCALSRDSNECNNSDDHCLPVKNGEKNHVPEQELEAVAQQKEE

Compound: CN[C@@H]1C[C@H]2O[C@@](C)([C@@H]1OC)n1c3ccccc3c3c4c(c5c6ccccc6n2c5c31)C(=O)NC4 [staurosporine]
Experiment: log2 fold change of tryptic peptide abundance, ligand vs vehicle (limited proteolysis) (log2 ratio); higher = more trypsin-susceptible (destabilized)
Settings: ligand concentration: 20 uM; sample: mouse liver crude lysate; replicate design: treated separately

Target	log2 fold change
UniProt Q8C0N2 (peptide sequence: ACPHVWFER, peptide start residue: 284)	0.352
UniProt Q8C0E3 (peptide sequence: MDELGAGIAQSR, peptide start residue: 243)	0.172
UniProt Q8C166 (peptide sequence: NCSSPEFSK, peptide start residue: 51)	-0.451
UniProt Q8C0S1 (peptide sequence: RQYNKLR, peptide start residue: 98)	0.468
UniProt Q8C729 (peptide sequence: VEVTPTVPR, peptide start residue: 303)	-0.26
UniProt Q8BZ47 (peptide sequence: KDEEPESVEGK, peptide start residue: 927)	-0.521
UniProt Q8BWW4 (peptide sequence: ALFKNENCPK, peptide start residue: 213)	-0.332
UniProt Q8BZM1 (peptide sequence: TEQSIYSK, peptide start residue: 326)	-0.397
UniProt Q8C1Z8 (peptide sequence: VDAGAEPISK, peptide start residue: 33)	0.318
UniProt Q8BYH7 (peptide sequence: LQNVPELK, peptide start residue: 296)	-0.233
UniProt Q8C863 (peptide sequence: TTTWQRPTLESVR, peptide start residue: 344)	-0.123
UniProt Q8C3F2 (peptide sequence: QGSSDVISK, peptide start residue: 1007)	-0.379
